Measured values from patent US20240010694A1, “HYDROGELS CONTAINING AFFIBODIES AND USES THEREOF” (University of Oregon, priority 2022, published 2024).
No constants are given. Whether binding was seen depends on the method and setting. Some binding calls cover weakened binding; strength is not graded here. Values belong to the binder of their own block, whether it stands above or below them.

Sequences of proteins named here, by UniProt entry; tags and fusion partners are left off. A change or cut given only in a name is not applied to a line headed by its entry. A line that says so, or that is headed by a name, gives the form on record, which may keep a tag or linker. Residues count along the entry.
UniProt P01127, residues 82-190: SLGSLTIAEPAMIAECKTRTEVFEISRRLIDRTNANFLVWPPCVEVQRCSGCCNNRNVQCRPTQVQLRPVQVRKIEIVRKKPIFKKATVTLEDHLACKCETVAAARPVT
UniProt P09038, residues 143-288: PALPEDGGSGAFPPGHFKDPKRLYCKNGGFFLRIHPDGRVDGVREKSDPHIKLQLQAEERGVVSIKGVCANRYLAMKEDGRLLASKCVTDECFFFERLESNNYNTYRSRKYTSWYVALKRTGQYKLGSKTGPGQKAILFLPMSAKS
vascular endothelial growth factor (VEGF) (P15692, form named): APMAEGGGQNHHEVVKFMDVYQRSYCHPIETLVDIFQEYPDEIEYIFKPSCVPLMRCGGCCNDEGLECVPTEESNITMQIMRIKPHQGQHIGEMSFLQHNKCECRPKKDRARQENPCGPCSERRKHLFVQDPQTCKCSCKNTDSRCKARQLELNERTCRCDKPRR
UniProt P04141, residues 18-144: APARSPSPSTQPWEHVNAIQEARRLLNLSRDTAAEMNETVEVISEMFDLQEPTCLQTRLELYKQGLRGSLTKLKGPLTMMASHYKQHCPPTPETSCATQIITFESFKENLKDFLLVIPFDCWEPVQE
UniProt P05112, residues 25-153: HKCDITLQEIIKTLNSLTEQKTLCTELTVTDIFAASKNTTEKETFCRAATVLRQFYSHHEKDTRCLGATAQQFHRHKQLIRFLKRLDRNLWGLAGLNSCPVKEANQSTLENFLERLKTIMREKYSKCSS

How the values were obtained:
[1] = target: platelet-derived growth factor (PDGF) (UniProt P01127); test: yeast surface display selection (MACS, FACS); clones that exhibited binding to the target were sequenced
[2] = target: fibroblast growth factor 2 (FGF-2) (UniProt P09038); test: as above
[3] = target: vascular endothelial growth factor (VEGF) (UniProt P15692); test: as above
[4] = target: granulocyte-macrophage colony-stimulating factor (GM-CSF) (UniProt P04141); test: yeast surface display selection (MACS, FACS) and flow cytometry
[5] = target: T1, glial derived neurotrophic factor (GDNF) (UniProt P39905); test: yeast surface display selection (MACS, FACS) against GDNF
T1 sequence (looked up): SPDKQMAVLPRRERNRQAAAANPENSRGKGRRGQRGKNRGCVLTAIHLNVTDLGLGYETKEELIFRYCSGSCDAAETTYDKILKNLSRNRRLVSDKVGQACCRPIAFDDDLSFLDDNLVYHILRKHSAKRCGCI

[6] = target: interleukin-4 (IL-4) (UniProt P05112); test: yeast surface display selection (MACS, FACS); clones that exhibited binding to the target were sequenced

binding [1]: binds
B1: PDGF affibody BR6 (designed binder)
chain: AEAKYYKEWDSASDSIGFLPNLTRAQMVAFFAALFNDPSQSSELLSEAKKLNDSQAPK

binding [2]: binds
B2: FGF-2 affibody FG1_C4 (designed binder)
chain: AEAKYSKEGFYADWVIPVLPNLTRKQRVAFHDALHNDPSQSSELLSEAKKLNDSQAPK

binding [2]: binds
B3: FGF-2 affibody FG3-C3 (designed binder)
chain: AEAKYAKELDAAYVVIYFLPNLTHCQMVAFLHALSDDPSQSSELLSEAKKLNDSQAPK

binding [3]: binds
B4: VEGF affibody BR7 (designed binder)
chain: AEAKYAKELLNAFDEIYGLPNLTVGQRMAFCDALINDPSQSSELLSEAKKLNDSQAPK

binding [3]: binds
B5: VEGF affibody L5 (designed binder)
chain: AEAKYNKERDSAYSVIWGLPNLTDSQKAAFGYALYNDPSQSSELLSEAKKLNDSQAPK

binding [4]: binds
B6: GM-CSF affibody GM3-C2 (designed binder)
chain: AEAKYNKEWYNAISVIFYLPNLTGFQRAAFVDALGDDPSQSSELLSEAKKLNDSQAPK

binding [3]: binds
B7: VEGF affibody L8 (designed binder)
chain: AEAKYNKEWYDAILEIGFLPNLTGHQRDAFSDALVDDPSQSSELLSEAKKLNDSQAPK

binding [5]: binds
B8: GDNF affibody B7 (designed binder)
chain: AEAKYSKEWYDAYLVIFVLPNLTQFQRPAFPPALKNDPSQSSELLSEAKKLNDSQAPK

binding [2]: binds
B9: FGF-2 affibody FG4-C2 (designed binder)
chain: AEAKYAKERLTAVCSIVALPNLTEGQMVAFDDALHDDPSQSSELLSEAKKLNDSQAPK

binding [3]: binds
B10: VEGF affibody L1 (designed binder)
chain: AEAKYYKEWNAAYVVINGLPNLTRRQREAFVHALVDDPSQSSELLSEAKKLNDSQAPK

binding [6]: binds
B11: IL-4 affibody AD_189 (designed binder)
chain: AERKYHWELLVAFMEIQSLPNLTKDQITQFMAALEDDPSQSSELLSEAKKLNDSQAPK

binding [3]: binds
B12: VEGF affibody BM7 (designed binder)
chain: AEAKYAKEGATAFGSIPYLPNLTDVQRYAFIVALLDDPSQSSELLSEAKKLNDSQAPK

binding [5]: binds
B13: GDNF affibody A2 (designed binder)
chain: AEAKYNKEKPNAVGEISVLPNLTEFQMVAFIFALVNDPSQSSELLSEAKKLNDSQAPK

binding [3]: binds
B14: VEGF affibody L4 (designed binder)
chain: AEAKYAKELDDAFFEIASLPNLTGFQLHAFAVALGNDPSQSSELLSEAKKLNDSQAPK

binding [2]: binds
B15: FGF-2 affibody FG2-C3 (designed binder)
chain: AEAKYAKEWLDAIDVIGYLPNLTDFQRGAFYDALNDDPSQSSELLSEAKKLNDSQAPK

binding [3]: binds
B16: VEGF affibody BR3 (designed binder)
chain: AEAKYTKERDDASLEIAYLPNLTPYQLMAFFFALSNDPSQSSELLSEAKKLNDSQAPK

binding [2]: binds
B17: FGF-2 affibody FG1_C3 (designed binder)
chain: AEAKYNKEGEDATTQIGSLPNLTQAQKHAFAVALGNDPSQSSELLSEAKKLNDSQAPK

binding [3]: binds
B18: VEGF affibody BM2 (designed binder)
chain: AEAKYAKEWFYAYHVIYDLPNLTGFQKHAFYLALYDDPSQSSELLSEAKKLNDSQAPK

binding [3]: binds
B19: VEGF affibody BR6 (designed binder)
chain: AEAKYAKEWEDAINEIWCLPNLTEYQRIAFVSALYNDPSQSSELLSEAKKLNDSQAPK

binding [3]: binds
B20: VEGF affibody L3 (designed binder)
chain: AEAKYYKERYAANYSIWVLPNLTLLQRFAFFFALSNDPSQSSELLSEAKKLNDSQAPK

binding [5]: binds
B21: GDNF affibody A3 (designed binder)
chain: AEAKYAKEWTTANYSIGVLPNLTLTQRYAFETALFDDPSQSSELLSEAKKLNDSQAPK

binding [3]: binds
B22: VEGF affibody TM4 (designed binder)
chain: AEAKYYKEWYDAFVVIDALPNLTAYQREAFIFALVNDPSQSSELLSEAKKLNDSQAPK

binding [2]: binds
B23: FGF-2 affibody FG4-C4 (designed binder)
chain: AEAKYAKEGCTAFLEIAALPNLTGYQRDAFIEALFDDPSQSSELLSEAKKLNDSQAPK

binding [2]: binds
B24: FGF-2 affibody FG4-C1 (designed binder)
chain: AEAKYSKEVYSAYDVIFALPNLTQYQVLAFFDALCDDPSQSSELLSEAKKLNDSQAPK

binding [5]: binds
B25: GDNF affibody A1 (designed binder)
chain: AEAKYNKEQVYASDSIQVLPNLTATQRVAFDPALHNDPSQSSELLSEAKKLNDSQAPK

binding [2]: binds
B26: FGF-2 affibody FG4-C3 (designed binder)
chain: AEAKYAKEGFNAVNVIWPLPNLTADQVCAFICALADDPSQSSELLSEAKKLNDSQAPK

binding [6]: binds
B27: IL-4 affibody G3H-C10 (designed binder)
chain: AEAKYSKEQSNAYASITDLPNLTRLQKLAFWVALFNDPSQSSELLSEAKKLNDSQAPK

binding [3]: binds
B28: VEGF affibody BR1 (designed binder)
chain: AEAKYTKEWYAAVVQIGYLPNLTAFQRAAFSFALSNDPSQSSELLSEAKKLNDSQAPK

binding [3]: binds
B29: VEGF affibody TM7 (designed binder)
chain: AEAKYTKEVDYAACVIAYLPNLTGVQVYAFYRALADDPSQSSELLSEAKKLNDSQAPK

binding [5]: binds
B30: GDNF affibody B4 (designed binder)
chain: AEAKYTKERHDATLVIHVLPNLTDARILAFIVALSNDPSQSSELLSEAKKLNDSQAPK

binding [2]: binds
B31: FGF-2 affibody FG1_C1 (designed binder)
chain: AEAKYTKEGCDAYTEIVDLPNLTGYQRRAFYWALENDPSQSSELLSEAKKLNDSQAPK

binding [3]: binds
B32: VEGF affibody L7 (designed binder)
chain: AEAKYAKELEAANMVIVDLPNLTHGQKVAFLVALFNDPSQSSELLSEAKKLNDSQAPK

binding [3]: binds
B33: VEGF affibody TM6 (designed binder)
chain: AEAKYYKEWVDAYLVIDSLPNLTRLQVEAFVFALVNDPSQSSELLSEAKKLNDSQAPK

binding [2]: binds
B34: FGF-2 affibody FG3_C2 (designed binder)
chain: AEAKYYKEGYNAIVEIRCLPNLTDCQVAAFIDALDDDPSQSSELLSEAKKLNDSQAPK

binding [2]: binds
B35: FGF-2 affibody FG1_C2 (designed binder)
chain: AEAKYNKEMPDANCQIAFLPNLTQYQVPAFIYALCNDPSQSSELLSEAKKLNDSQAPK
